This note sets out measurements from publication PMC4941120.

Changes are numbered by the printed parent chain. Names may count otherwise. These are yes or no findings as the source states them, for the method shown. Binding seen in cells or lysates may run through a third protein. Some binding calls cover weakened binding; strength is not graded here. Sequences can lack the tags named with a protein.

The target of the experiment is T1, COX11 (human (endogenous in HEK293)) (UniProt Q9Y6N1).
T1 sequence: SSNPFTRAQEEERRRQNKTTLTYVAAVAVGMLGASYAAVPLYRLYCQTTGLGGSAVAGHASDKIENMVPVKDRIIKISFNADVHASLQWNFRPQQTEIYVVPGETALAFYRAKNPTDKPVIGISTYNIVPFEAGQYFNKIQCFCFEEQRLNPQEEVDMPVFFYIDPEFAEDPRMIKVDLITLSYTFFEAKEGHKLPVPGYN
In words: co-IP; COX11 immunoprecipitates (IP: COX11) from lysates of cells expressing vector, Flag-WARS2 or Flag-WARS2(L53F), immunoblotted for COX11 and Flag; lysis in 20 mM HEPES pH 7.4, 137 mM NaCl, 1% Triton X-100. For orientation: A western blot detects proteins with antibodies after separation by electrophoresis.

B1: Flag-tagged wild-type WARS2 (enzyme, UniProt Q9UGM6 19-360)
chain: LHKGSAAAPALQKDSKKRVFSGIQPTGILHLGNYLGAIESWVRLQDEYDSVLYSIVDLHSITVPQDPAVLRQSILDMTAVLLACGINPEKSILFQQSQVSEHTQLSWILSCMVRLPRLQHLHQWKAKTTKQKHDGTVGLLTYPVLQAADILLYKSTHVPVGEDQVQHMELVQDLAQGFNKKYGEFFPVPESILTSMKKVKSLRDPSAKMSKSDPDKLATVRITDSPEEIVQKFRKAVTDFTSEVTYDPAGRAGVSNIVAVHAAVTGLSVEEVVRRSAGMNTARYKLAVADAVIEKFAPIKREIEKLKLDKDHLEKVLQIGSAKAKELAYTVCQEVKKLVGFL
For B1, the binding result is “binds”.

B2: Flag-tagged mutant WARS2(L53F) (enzyme, UniProt Q9UGM6 19-360)
chain: B1 chain with L35F
In the case of B2, the binding result is “binds”.
